Values from PubChem BioAssay AID504774 (Drosophila RNAi Screening Center, 2011)
The deposit covers about 23,000 reagents; this is a random part of those with a known target gene and a result. 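Values are quantile-normalised luminescence on an arbitrary scale; higher means more cells surviving MMS.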 Further read-outs or replicates are left out here.

Screen: 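Genes required for cells to withstand methyl methanesulphonate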 (primary screen)
System: Drosophila Kc167 cells
Reagents: long dsRNA against Drosophila genes, about 0.25 µg dsRNA per well
Timing: about 6 days: 3 days knock-down, then 3 days with or without MMS
Conditions: methyl methanesulphonate 0.004% (w/v) for 3 days after knock-down
Detection: 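ATP-dependent luminescence as a measure of live cells in MMS-exposed wells, quantile normalised within each plate, with replicate values also given as a mean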
Scale: mean viability with MMS and viability with MMS: higher = more surviving cells after MMS

With CG12699 [DRSC06162], what was measured?
mean viability with MMS: 3.55e6; viability with MMS, replicate 1: 4.08e6

What did the screen give for CG31321 [DRSC13028]?
mean viability with MMS: 3.47e6; viability with MMS, replicate 1: 3.92e6

What is on record for tgy (twiggy) [DRSC20045]?
mean viability with MMS: 3.51e6; viability with MMS, replicate 1: 4.04e6

What is on record for HisRS (Histidyl-tRNA synthetase) [DRSC19986]?
mean viability with MMS: 3.21e6; viability with MMS, replicate 1: 3.57e6

Which result is listed for CG14667 [DRSC12253]?
mean viability with MMS: 3.66e6; viability with MMS, replicate 1: 4.19e6

With CG6136 [DRSC15975], how do the results read?
mean viability with MMS: 3.48e6; viability with MMS, replicate 1: 3.87e6

Which result is listed for CG4161 [DRSC01930]?
mean viability with MMS: 3.56e6; viability with MMS, replicate 1: 4.04e6

For Sirt6 (Sirtuin 6) [DRSC16010], what does the deposit list?
mean viability with MMS: 3.51e6; viability with MMS, replicate 1: 4.00e6

For CG31550 [DRSC12197], what was measured?
mean viability with MMS: 3.56e6; viability with MMS, replicate 1: 3.98e6

With CG31550 [DRSC12198], what does the deposit list?
mean viability with MMS: 3.48e6; viability with MMS, replicate 1: 3.95e6

For CG31462 (retired record) [DRSC14359], what does the deposit list?
mean viability with MMS: 3.58e6; viability with MMS, replicate 1: 4.01e6

For Ocho [DRSC11239], what does the deposit list?
mean viability with MMS: 3.51e6; viability with MMS, replicate 1: 4.03e6

What did the screen give for CG9689 [DRSC18440]?
mean viability with MMS: 3.57e6; viability with MMS, replicate 1: 4.00e6

How did the screen score CG4714 [DRSC06883]?
mean viability with MMS: 3.62e6; viability with MMS, replicate 1: 4.11e6

For Ir48a (Ionotropic receptor 48a) [DRSC05301], how do the results read?
mean viability with MMS: 3.50e6; viability with MMS, replicate 1: 3.90e6

What did the screen give for CG12853 [DRSC06193]?
mean viability with MMS: 3.52e6; viability with MMS, replicate 1: 3.78e6

What is on record for Osi19 (Osiris 19) [DRSC12569]?
mean viability with MMS: 3.60e6; viability with MMS, replicate 1: 3.96e6

What is on record for CG3281 [DRSC15470]?
mean viability with MMS: 3.53e6; viability with MMS, replicate 1: 3.95e6

What is on record for sip3 (septin interacting protein 3) [DRSC15402]?
mean viability with MMS: 3.68e6; viability with MMS, replicate 1: 4.35e6

Which result is listed for CG5104 [DRSC11765]?
mean viability with MMS: 3.62e6; viability with MMS, replicate 1: 4.10e6

In a second layout: entries from further up
gene	dsRNA	mean viability with MMS	viability with MMS, replicate 1
CG4161	DRSC01930	3.56e6	4.04e6
Sirt6 (Sirtuin 6)	DRSC16010	3.51e6	4.00e6
CG31550	DRSC12197	3.56e6	3.98e6
CG31550	DRSC12198	3.48e6	3.95e6
CG31462 (retired record)	DRSC14359	3.58e6	4.01e6

The results go on:
How did the screen score Rcd5 (Reduction in Cnn dots 5) [DRSC08180]?
mean viability with MMS: 3.74e6; viability with MMS, replicate 1: 4.22e6

How did the screen score Rab3GAP1 (RAB3 GTPase activating protein subunit 1) [DRSC00291]?
mean viability with MMS: 3.47e6; viability with MMS, replicate 1: 3.88e6

With Rab3GAP1 (RAB3 GTPase activating protein subunit 1) [DRSC00703], what was measured?
mean viability with MMS: 3.55e6; viability with MMS, replicate 1: 4.01e6

How did the screen score CG18508 [DRSC18155]?
mean viability with MMS: 3.53e6; viability with MMS, replicate 1: 3.96e6

With Alp7 (Alkaline phosphatase 7) [DRSC04355], what was measured?
mean viability with MMS: 3.15e6; viability with MMS, replicate 1: 3.68e6

With Obp50a (Odorant-binding protein 50a) [DRSC22152], what was measured?
mean viability with MMS: 3.48e6; viability with MMS, replicate 1: 3.97e6

What is on record for Cyp6g2 (Cytochrome P450 6g2) [DRSC07387]?
mean viability with MMS: 3.63e6; viability with MMS, replicate 1: 4.00e6

Which result is listed for CG4820 [DRSC15654]?
mean viability with MMS: 3.72e6; viability with MMS, replicate 1: 4.21e6

For CG13950 [DRSC00368], what was measured?
mean viability with MMS: 3.50e6; viability with MMS, replicate 1: 4.01e6

What did the screen give for CG15890 [DRSC19737]?
mean viability with MMS: 3.55e6; viability with MMS, replicate 1: 4.03e6

What did the screen give for Drl-2 (Derailed 2) [DRSC05393]?
mean viability with MMS: 3.46e6; viability with MMS, replicate 1: 3.93e6

Which result is listed for Drl-2 (Derailed 2) [DRSC06155]?
mean viability with MMS: 3.54e6; viability with MMS, replicate 1: 3.96e6

For Drl-2 (Derailed 2) [DRSC06858], what does the deposit list?
mean viability with MMS: 3.54e6; viability with MMS, replicate 1: 4.02e6

Which result is listed for Obp56g (Odorant-binding protein 56g) [DRSC06432]?
mean viability with MMS: 3.48e6; viability with MMS, replicate 1: 3.99e6

For vito (viriato) [DRSC21781], how do the results read?
mean viability with MMS: 3.37e6; viability with MMS, replicate 1: 3.88e6

For CG15194 (retired record) [DRSC19642], what was measured?
mean viability with MMS: 3.91e6; viability with MMS, replicate 1: 4.40e6

For CG15194 (retired record) [DRSC19777], what does the deposit list?
mean viability with MMS: 3.61e6; viability with MMS, replicate 1: 3.94e6

With CG3246 [DRSC00584], what does the deposit list?
mean viability with MMS: 3.55e6; viability with MMS, replicate 1: 4.12e6

With Cht9 (Chitinase 9) [DRSC04079], what was measured?
mean viability with MMS: 3.59e6; viability with MMS, replicate 1: 3.85e6

With CG17177 [DRSC10257], what does the deposit list?
mean viability with MMS: 3.61e6; viability with MMS, replicate 1: 4.05e6

What is on record for Clk (Clock) [DRSC11117]?
mean viability with MMS: 3.49e6; viability with MMS, replicate 1: 4.00e6

What did the screen give for CG9302 [DRSC03191]?
mean viability with MMS: 1.59e6; viability with MMS, replicate 1: 3.88e6

With CG18273 [DRSC18150], what does the deposit list?
mean viability with MMS: 3.46e6; viability with MMS, replicate 1: 3.77e6

For CG18273 [DRSC18505], what does the deposit list?
mean viability with MMS: 3.69e6; viability with MMS, replicate 1: 4.07e6

For mbf1 (multiprotein bridging factor 1) [DRSC11365], what does the deposit list?
mean viability with MMS: 3.49e6; viability with MMS, replicate 1: 3.78e6
